Experimental data: doi:10.1101/2022.10.19.512916
These are yes or no findings as the source states them, for the method shown. In cells and extracts the contact can be indirect. Some entries that bind do so weakly or less than the wild type. One block for each binder: values may come before it.

Sequences of proteins named here, by UniProt entry; tags and fusion partners are left off.
UniProt P15924: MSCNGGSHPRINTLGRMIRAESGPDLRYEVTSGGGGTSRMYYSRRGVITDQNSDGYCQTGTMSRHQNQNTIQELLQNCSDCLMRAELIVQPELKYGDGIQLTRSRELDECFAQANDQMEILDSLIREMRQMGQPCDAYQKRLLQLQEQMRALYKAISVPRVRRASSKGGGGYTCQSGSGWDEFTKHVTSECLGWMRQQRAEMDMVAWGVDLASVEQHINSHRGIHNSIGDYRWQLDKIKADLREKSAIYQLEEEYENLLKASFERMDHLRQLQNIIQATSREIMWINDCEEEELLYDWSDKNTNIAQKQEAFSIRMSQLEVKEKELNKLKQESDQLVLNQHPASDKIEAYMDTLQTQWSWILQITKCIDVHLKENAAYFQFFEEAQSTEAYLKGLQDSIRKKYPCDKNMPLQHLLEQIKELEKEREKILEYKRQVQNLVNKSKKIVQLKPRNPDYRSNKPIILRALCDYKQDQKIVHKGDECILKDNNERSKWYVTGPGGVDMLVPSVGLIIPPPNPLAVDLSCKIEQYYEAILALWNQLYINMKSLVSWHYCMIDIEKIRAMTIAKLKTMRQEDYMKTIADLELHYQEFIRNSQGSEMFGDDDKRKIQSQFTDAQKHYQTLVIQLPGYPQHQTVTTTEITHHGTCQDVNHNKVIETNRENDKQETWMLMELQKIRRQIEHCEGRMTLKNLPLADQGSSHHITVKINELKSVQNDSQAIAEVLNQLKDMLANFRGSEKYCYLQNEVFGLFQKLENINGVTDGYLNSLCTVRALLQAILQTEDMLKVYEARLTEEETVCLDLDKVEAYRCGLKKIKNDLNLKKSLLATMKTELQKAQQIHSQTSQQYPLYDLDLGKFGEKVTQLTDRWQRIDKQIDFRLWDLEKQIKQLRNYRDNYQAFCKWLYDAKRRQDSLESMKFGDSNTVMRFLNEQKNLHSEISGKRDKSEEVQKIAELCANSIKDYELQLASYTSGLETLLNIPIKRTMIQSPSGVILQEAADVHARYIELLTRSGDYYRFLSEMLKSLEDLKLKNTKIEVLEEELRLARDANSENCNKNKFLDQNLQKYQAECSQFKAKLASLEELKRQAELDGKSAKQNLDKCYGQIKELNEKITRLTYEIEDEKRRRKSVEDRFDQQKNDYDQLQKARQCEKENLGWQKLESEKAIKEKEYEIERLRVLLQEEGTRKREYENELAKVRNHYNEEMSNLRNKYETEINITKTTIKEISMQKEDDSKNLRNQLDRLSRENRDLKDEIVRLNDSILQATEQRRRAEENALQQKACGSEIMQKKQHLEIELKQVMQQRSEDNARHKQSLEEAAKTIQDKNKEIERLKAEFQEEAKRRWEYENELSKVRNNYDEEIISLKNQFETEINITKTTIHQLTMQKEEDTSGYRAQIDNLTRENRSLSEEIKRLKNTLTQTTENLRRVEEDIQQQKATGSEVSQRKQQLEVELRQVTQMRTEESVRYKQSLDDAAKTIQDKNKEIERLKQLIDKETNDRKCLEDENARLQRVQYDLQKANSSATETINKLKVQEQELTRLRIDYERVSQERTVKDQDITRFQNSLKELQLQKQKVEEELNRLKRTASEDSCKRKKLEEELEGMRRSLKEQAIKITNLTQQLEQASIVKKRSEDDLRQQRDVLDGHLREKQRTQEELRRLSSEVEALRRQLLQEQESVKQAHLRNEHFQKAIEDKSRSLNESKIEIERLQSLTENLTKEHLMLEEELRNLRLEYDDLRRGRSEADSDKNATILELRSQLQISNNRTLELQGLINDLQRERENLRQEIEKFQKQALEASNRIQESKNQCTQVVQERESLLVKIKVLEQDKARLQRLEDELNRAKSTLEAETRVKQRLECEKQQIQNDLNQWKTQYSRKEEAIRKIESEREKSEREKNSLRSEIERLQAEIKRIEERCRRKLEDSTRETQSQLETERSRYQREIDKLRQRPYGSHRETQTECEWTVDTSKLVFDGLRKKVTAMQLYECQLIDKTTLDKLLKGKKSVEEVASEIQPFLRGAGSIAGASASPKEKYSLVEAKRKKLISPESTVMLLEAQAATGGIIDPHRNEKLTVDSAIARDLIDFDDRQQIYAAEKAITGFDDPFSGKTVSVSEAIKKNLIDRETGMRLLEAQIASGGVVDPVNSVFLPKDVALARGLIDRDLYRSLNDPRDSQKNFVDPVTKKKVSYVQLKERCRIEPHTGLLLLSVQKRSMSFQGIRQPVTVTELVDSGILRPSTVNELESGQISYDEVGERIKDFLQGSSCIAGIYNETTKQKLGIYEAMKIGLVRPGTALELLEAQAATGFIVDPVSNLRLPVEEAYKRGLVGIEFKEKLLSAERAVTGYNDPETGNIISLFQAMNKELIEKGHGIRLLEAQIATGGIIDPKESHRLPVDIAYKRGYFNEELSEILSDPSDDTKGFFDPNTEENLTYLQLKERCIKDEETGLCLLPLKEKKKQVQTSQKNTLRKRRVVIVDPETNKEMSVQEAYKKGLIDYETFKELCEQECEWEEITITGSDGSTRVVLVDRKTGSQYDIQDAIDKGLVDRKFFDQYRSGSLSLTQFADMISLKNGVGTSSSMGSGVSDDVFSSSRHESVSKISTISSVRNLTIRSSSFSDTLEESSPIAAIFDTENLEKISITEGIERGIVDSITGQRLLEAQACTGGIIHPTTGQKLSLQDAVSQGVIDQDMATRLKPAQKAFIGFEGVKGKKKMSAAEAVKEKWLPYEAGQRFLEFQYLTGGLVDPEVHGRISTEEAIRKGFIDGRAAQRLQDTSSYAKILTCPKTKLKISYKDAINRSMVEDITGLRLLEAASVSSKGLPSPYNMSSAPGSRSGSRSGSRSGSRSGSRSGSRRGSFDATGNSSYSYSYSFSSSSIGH

Columns and labels:
[1] = molecular target: desmoplakin (DP) (human (endogenous in SCC9)), P15924; experiment: co-IP; conditions: remark: other sources report otherwise
[2] = molecular target: T1, PP2A regulatory subunit B55α (human (endogenous in SCC9)) (UniProt P63151); experiment: co-IP
T1 sequence: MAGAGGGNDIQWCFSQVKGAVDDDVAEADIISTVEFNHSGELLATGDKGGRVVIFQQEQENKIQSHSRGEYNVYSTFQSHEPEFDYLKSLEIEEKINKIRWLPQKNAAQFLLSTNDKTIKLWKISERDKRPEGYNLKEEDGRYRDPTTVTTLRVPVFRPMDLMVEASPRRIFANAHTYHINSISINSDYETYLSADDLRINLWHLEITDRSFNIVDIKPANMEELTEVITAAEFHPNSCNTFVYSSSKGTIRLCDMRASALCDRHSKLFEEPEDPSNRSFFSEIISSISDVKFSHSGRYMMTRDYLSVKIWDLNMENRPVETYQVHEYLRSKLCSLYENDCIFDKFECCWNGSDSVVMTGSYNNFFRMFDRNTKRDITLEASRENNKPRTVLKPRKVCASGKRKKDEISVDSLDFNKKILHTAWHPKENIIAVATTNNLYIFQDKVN

[3] = molecular target: desmoplakin (DP) (human (endogenous in SCC9)) (UniProt P15924); experiment: proximity ligation
[4] = molecular target: desmoplakin (DP) (human (endogenous in SCC9)) (UniProt P15924); experiment: proximity ligation; remark: listed apart in the source
[5] = molecular target: desmoplakin (DP) (human (endogenous in SCC9)) (UniProt P15924); experiment: co-IP

binding [1]: binds
B1: desmosomal cadherin Dsg3, P32926 50-999 (protein)
chain: EWVKFAKPCREGEDNSKRNPIAKITSDYQATQKITYRISGVGIDQPPFGIFVVDKNTGDINITAIVDREETPSFLITCRALNAQGLDVEKPLILTVKILDINDNPPVFSQQIFMGEIEENSASNSLVMILNATDADEPNHLNSKIAFKIVSQEPAGTPMFLLSRNTGEVRTLTNSLDREQASSYRLVVSGADKDGEGLSTQCECNIKVKDVNDNFPMFRDSQYSARIEENILSSELLRFQVTDLDEEYTDNWLAVYFFTSGNEGNWFEIQTDPRTNEGILKVVKALDYEQLQSVKLSIAVKNKAEFHQSVISRYRVQSTPVTIQVINVREGIAFRPASKTFTVQKGISSKKLVDYILGTYQAIDEDTNKAASNVKYVMGRNDGGYLMIDSKTAEIKFVKNMNRDSTFIVNKTITAEVLAIDEYTGKTSTGTVYVRVPDFNDNCPTAVLEKDAVCSSSPSVVVSARTLNNRYTGPYTFALEDQPVKLPAVWSITTLNATSALLRAQEQIPPGVYHISLVLTDSQNNRCEMPRSLTLEVCQCDNRGICGTSYPTTSPGTRYGRPHSGRLGPAAIGLLLLGLLLLLLAPLLLLTCDCGAGSTGGVTGGFIPVPDGSEGTIHQWGIEGAHPEDKEITNICVPPVTANGADFMESSEVCTNTYARGTAVEGTSGMEMTTKLGAATESGGAAGFATGTVSGAASGFGAATGVGICSSGQSGTMRTRHSTGGTNKDYADGAISMNFLDSYFSQKAFACAEEDDGQEANDCLLIYDNEGADATGSPVGSVGCCSFIADDLDDSFLDSLGPKFKKLAEISLGVDGEGKEVQPPSKDSGYGIESCGHPIEVQQTGFVKCQTLSGSQGASALSTSGSVQPAVSIPDPLQHGNYLVTETYSASGSLVQPSTAGFDPLLTQNVIVTERVICPISSVPGNLAGPTQLRGSHTMLCTEDPCSRLI

binding [2]: no binding
B2: desmosomal cadherin Dsg3 (protein, UniProt P32926 50-999)
chain: EWVKFAKPCREGEDNSKRNPIAKITSDYQATQKITYRISGVGIDQPPFGIFVVDKNTGDINITAIVDREETPSFLITCRALNAQGLDVEKPLILTVKILDINDNPPVFSQQIFMGEIEENSASNSLVMILNATDADEPNHLNSKIAFKIVSQEPAGTPMFLLSRNTGEVRTLTNSLDREQASSYRLVVSGADKDGEGLSTQCECNIKVKDVNDNFPMFRDSQYSARIEENILSSELLRFQVTDLDEEYTDNWLAVYFFTSGNEGNWFEIQTDPRTNEGILKVVKALDYEQLQSVKLSIAVKNKAEFHQSVISRYRVQSTPVTIQVINVREGIAFRPASKTFTVQKGISSKKLVDYILGTYQAIDEDTNKAASNVKYVMGRNDGGYLMIDSKTAEIKFVKNMNRDSTFIVNKTITAEVLAIDEYTGKTSTGTVYVRVPDFNDNCPTAVLEKDAVCSSSPSVVVSARTLNNRYTGPYTFALEDQPVKLPAVWSITTLNATSALLRAQEQIPPGVYHISLVLTDSQNNRCEMPRSLTLEVCQCDNRGICGTSYPTTSPGTRYGRPHSGRLGPAAIGLLLLGLLLLLLAPLLLLTCDCGAGSTGGVTGGFIPVPDGSEGTIHQWGIEGAHPEDKEITNICVPPVTANGADFMESSEVCTNTYARGTAVEGTSGMEMTTKLGAATESGGAAGFATGTVSGAASGFGAATGVGICSSGQSGTMRTRHSTGGTNKDYADGAISMNFLDSYFSQKAFACAEEDDGQEANDCLLIYDNEGADATGSPVGSVGCCSFIADDLDDSFLDSLGPKFKKLAEISLGVDGEGKEVQPPSKDSGYGIESCGHPIEVQQTGFVKCQTLSGSQGASALSTSGSVQPAVSIPDPLQHGNYLVTETYSASGSLVQPSTAGFDPLLTQNVIVTERVICPISSVPGNLAGPTQLRGSHTMLCTEDPCSRLI

binding [3]: binds
binding [4]: binds
binding [5]: binds
B3: PP2A regulatory subunit B55α (protein, UniProt P63151 1-447)
chain: MAGAGGGNDIQWCFSQVKGAVDDDVAEADIISTVEFNHSGELLATGDKGGRVVIFQQEQENKIQSHSRGEYNVYSTFQSHEPEFDYLKSLEIEEKINKIRWLPQKNAAQFLLSTNDKTIKLWKISERDKRPEGYNLKEEDGRYRDPTTVTTLRVPVFRPMDLMVEASPRRIFANAHTYHINSISINSDYETYLSADDLRINLWHLEITDRSFNIVDIKPANMEELTEVITAAEFHPNSCNTFVYSSSKGTIRLCDMRASALCDRHSKLFEEPEDPSNRSFFSEIISSISDVKFSHSGRYMMTRDYLSVKIWDLNMENRPVETYQVHEYLRSKLCSLYENDCIFDKFECCWNGSDSVVMTGSYNNFFRMFDRNTKRDITLEASRENNKPRTVLKPRKVCASGKRKKDEISVDSLDFNKKILHTAWHPKENIIAVATTNNLYIFQDKVN
